# For at least one compound, name, drawing or mass did not settle the structure.
# Molecular target: T1, Kv7.2/7.3 (KCNQ2/3) (Homo sapiens, UniProt O43525+O43526)
# T1 construct: expressed in transfected cells; host or cells: CHO
# Assay: CHO-Kv7.2/7.3 (KCNQ2/3) 86Rb efflux assay
# Format: cell-based
# Experimental: Compounds were tested at concentrations from 0.001 μM to 30 μM to generate 10-point concentration-response curve (CRC) (n=2). Retigabine and ML213 were included as control activators of Kv7.2/7.3 (KCNQ2/3). Data was normalized to ^86Rb flux elicited by application of extracellular buffer containing 70 mM KCl.
# Data were fit with “maximum activation” set at 100% of 70 mM KCl control stimulus.
smiles,measurement,setting,value
"CCOC(=O)Nc1ccc(NCc2ccc(F)cc2)cc1N [Retigabine, reference compound]",86Rb flux elicited by reference activators,EC50 values comparable to literature values,robust concentration-dependent
same,Conc μM @ Max Flux,concentration at which maximal 86Rb flux was seen,10 µM
same,Fitted Max %,"fit, maximum activation set at 100% of 70 mM KCl control stimulus",82%

# Source: patent US20180161310A1, “COMPOUNDS AND METHODS FOR THE TREATMENT OF NEUROLOGICAL DISORDERS” (Teleos Therapeutics, LLC, priority 2016, published 2018)
